Measurements reported in PubChem BioAssay AID504793 (Drosophila RNAi Screening Center, 2011).

- Screen: 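Whole-genome screen for parts of the DNA damage checkpoint at G2/M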 (primary screen)
- Cell system: Drosophila S2R+ cells
- Knock-down reagent: long dsRNA against Drosophila genes, about 0.25 µg dsRNA per well
- Timing: 4 days of dsRNA, then 4 hours of drug before read-out
- Treatment: doxorubicin 0.5 µM for 4 hours to cause double-strand breaks, in cells also given a low, harmless dose of dsRNA against nbs to sensitise the assay
- Read-out: 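Per-well count of mitotic cells stained for phospho-histone H3 after doxorubicin exposure, used as mitotic index; counts are raw and not normalised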
- Reading the numbers: mitotic cells: higher = more cells in mitosis, weaker G2 arrest
- Rule for the call: 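a call needs confirmation in secondary tests, with other dsRNAs and a check of mitotic timing without damage, not just a high primary count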
- Meaning of the calls: active = confirmed in follow-up tests; inactive = not confirmed
In all, the deposit lists about 23,000 reagents; shown is a random part of those with a known target gene and a result. In the full data, 62 (0.27%) were called active. 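Calls come from follow-up tests whose scores are not deposited, so confirmed genes may have low counts here; counts are not normalised per plate.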 Raw values are not corrected between plates. A plus sign joins genes that one reagent is predicted to hit. Reagent sequences are not shown.

Gene,DRSC id,"mitotic cells, replicate 1",call
MED25 (GeneID 42385),DRSC22981,15,inactive
MED25 (GeneID 42385),DRSC25776,8,inactive
Taf12L (GeneID 33672),DRSC00467,2,inactive
CG10459 (GeneID 36000),DRSC05991,8,inactive
CG10459 (GeneID 36000),DRSC22092,6,inactive
Snx16 (GeneID 37015),DRSC06984,6,inactive
Lipt1 (GeneID 36795),DRSC07183,2,inactive
CG14830 (GeneID 38800),DRSC08876,14,inactive
CG14830 (GeneID 38800),DRSC10200,4,inactive
CG14830 (GeneID 38800),DRSC26586,7,inactive
slf (GeneID 33678),DRSC00583,1,inactive
slf (GeneID 33678),DRSC27361,9,inactive
CG18269 (GeneID 33785),DRSC02660,6,inactive
CG44422 (GeneID 32063),DRSC18885,5,inactive
CG44422 (GeneID 32063),DRSC19380,3,inactive
CG44422 (GeneID 32063),DRSC23284,15,inactive
Atg6 (GeneID 42850),DRSC15798,6,inactive
Atg6 (GeneID 42850),DRSC24442,8,inactive
mfr (GeneID 39016),DRSC10543,4,inactive
CG12909 (GeneID 36087),DRSC06224,13,inactive
CG12909 (GeneID 36087),DRSC27706,8,inactive
Gcn5 (GeneID 39431),DRSC11248,7,inactive
Gcn5 (GeneID 39431),DRSC26932,4,inactive
pncr011:3L (retired record) (GeneID 3772614),DRSC37775,15,inactive
pncr011:3L (retired record) (GeneID 3772614),DRSC39123,3,inactive
CG15597 (GeneID 40767),DRSC12283,13,inactive
CG15597 (GeneID 40767),DRSC24202,7,inactive
pic (GeneID 41611),DRSC16639,20,active

Targets above whose gene name begins with A or a:
Gene,DRSC id,"mitotic cells, replicate 1",call
Atg6 (GeneID 42850),DRSC15798,6,inactive
Atg6 (GeneID 42850),DRSC24442,8,inactive

The listing continues:
Gene,DRSC id,"mitotic cells, replicate 1",call
CG4872 (GeneID 32676),DRSC19921,3,inactive
CG40282 (retired record) (GeneID 3355140),DRSC07814,20,inactive
Or35a (GeneID 34918),DRSC03389,11,inactive
TORIP (GeneID 40158),DRSC10104,1,inactive
Gbp2 (GeneID 36937),DRSC06069,3,inactive
CG6763 (GeneID 42754),DRSC16110,6,inactive
CG6763 (GeneID 42754),DRSC24299,4,inactive
CG12483 (GeneID 50161),DRSC08278,6,inactive
CG15731 (GeneID 32194),DRSC19698,13,inactive
CG15731 (GeneID 32194),DRSC21820,9,inactive
CG15731 (GeneID 32194),DRSC26144,7,inactive
CG8369 (GeneID 50005),DRSC16413,6,inactive
RpS27A (GeneID 34420),DRSC03421,2,inactive
RpS27A (GeneID 34420),DRSC30047,8,inactive
Vps28 (GeneID 47408),DRSC06168,2,inactive
CG15126 (GeneID 50202),DRSC06548,5,inactive
CG17321 (GeneID 35144),DRSC02598,5,inactive
CG17321 (GeneID 35144),DRSC25649,6,inactive
Gpdh3 (GeneID 42624),DRSC13561,16,inactive
Gpdh3 (GeneID 42624),DRSC15325,12,inactive
CG17666 (GeneID 39452),DRSC10276,1,inactive
CG17666 (GeneID 39452),DRSC26761,7,inactive
CG9014 (GeneID 34777),DRSC01979,2,inactive
Ppox (GeneID 42939),DRSC17033,15,inactive
AGO2 (GeneID 39683),DRSC10847,5,inactive
Uch (GeneID 33397),DRSC00797,5,inactive
mRpS11 (GeneID 42061),DRSC15732,4,inactive
dy (GeneID 32130),DRSC20325,13,inactive
dy (GeneID 32130),DRSC25539,5,inactive
CG14126 (retired record) (GeneID 39350),DRSC10130,4,inactive
CG14126 (retired record) (GeneID 39350),DRSC28859,10,inactive
PKD (GeneID 42203),DRSC16200,6,inactive
mRpL52 (GeneID 35711),DRSC06585,10,inactive
CG5399 (GeneID 41900),DRSC15791,5,inactive
CG5399 (GeneID 41900),DRSC25357,6,inactive
CG15870 (GeneID 36446),DRSC06588,3,inactive
CG15870 (GeneID 36446),DRSC26344,4,inactive
CG6294 + CG6299,DRSC19980,5,inactive
CG6294 + CG6299,DRSC27443,4,inactive
Atac3 (GeneID 38055),DRSC08579,2,inactive
CG4338 (GeneID 41849),DRSC15564,6,inactive
PGAP1 (GeneID 31487),DRSC18286,9,inactive
PGAP1 (GeneID 31487),DRSC28989,3,inactive
CG30338 (GeneID 246548),DRSC05166,3,inactive
Tim10 + CG42497,DRSC04664,5,inactive
CG32815 (GeneID 318224),DRSC18177,19,inactive
CG32815 (GeneID 318224),DRSC29799,5,inactive
